# Laboratory results reported in PMC10454932.
# Chains of the proteins cited; added tags and fusions are not shown.
# UniProt Q61510: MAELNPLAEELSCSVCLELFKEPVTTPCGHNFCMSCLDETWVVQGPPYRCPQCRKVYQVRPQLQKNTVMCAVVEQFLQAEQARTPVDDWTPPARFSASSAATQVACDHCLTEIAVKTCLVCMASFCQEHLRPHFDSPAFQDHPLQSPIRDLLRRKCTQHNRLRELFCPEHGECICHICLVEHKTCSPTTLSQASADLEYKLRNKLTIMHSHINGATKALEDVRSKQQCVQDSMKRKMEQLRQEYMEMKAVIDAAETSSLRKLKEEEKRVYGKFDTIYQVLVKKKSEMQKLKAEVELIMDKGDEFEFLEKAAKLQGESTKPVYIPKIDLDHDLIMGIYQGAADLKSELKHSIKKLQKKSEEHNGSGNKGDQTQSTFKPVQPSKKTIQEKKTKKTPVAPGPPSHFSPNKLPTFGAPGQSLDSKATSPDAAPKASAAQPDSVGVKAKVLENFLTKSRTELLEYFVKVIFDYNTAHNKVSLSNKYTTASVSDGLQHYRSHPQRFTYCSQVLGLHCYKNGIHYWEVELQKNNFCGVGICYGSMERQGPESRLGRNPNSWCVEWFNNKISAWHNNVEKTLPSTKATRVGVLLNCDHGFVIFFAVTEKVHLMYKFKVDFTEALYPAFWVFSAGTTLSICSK
# Results are given in words; binding and its absence hold for the method and conditions named. In cells and extracts the contact can be indirect. Some binding calls cover weakened binding; strength is not graded here. Sequences can lack the tags named with a protein.
# Target: T1, Flag-RIG-I (mouse (cloned from N2a cells)) (UniProt Q6Q899)
# T1 sequence: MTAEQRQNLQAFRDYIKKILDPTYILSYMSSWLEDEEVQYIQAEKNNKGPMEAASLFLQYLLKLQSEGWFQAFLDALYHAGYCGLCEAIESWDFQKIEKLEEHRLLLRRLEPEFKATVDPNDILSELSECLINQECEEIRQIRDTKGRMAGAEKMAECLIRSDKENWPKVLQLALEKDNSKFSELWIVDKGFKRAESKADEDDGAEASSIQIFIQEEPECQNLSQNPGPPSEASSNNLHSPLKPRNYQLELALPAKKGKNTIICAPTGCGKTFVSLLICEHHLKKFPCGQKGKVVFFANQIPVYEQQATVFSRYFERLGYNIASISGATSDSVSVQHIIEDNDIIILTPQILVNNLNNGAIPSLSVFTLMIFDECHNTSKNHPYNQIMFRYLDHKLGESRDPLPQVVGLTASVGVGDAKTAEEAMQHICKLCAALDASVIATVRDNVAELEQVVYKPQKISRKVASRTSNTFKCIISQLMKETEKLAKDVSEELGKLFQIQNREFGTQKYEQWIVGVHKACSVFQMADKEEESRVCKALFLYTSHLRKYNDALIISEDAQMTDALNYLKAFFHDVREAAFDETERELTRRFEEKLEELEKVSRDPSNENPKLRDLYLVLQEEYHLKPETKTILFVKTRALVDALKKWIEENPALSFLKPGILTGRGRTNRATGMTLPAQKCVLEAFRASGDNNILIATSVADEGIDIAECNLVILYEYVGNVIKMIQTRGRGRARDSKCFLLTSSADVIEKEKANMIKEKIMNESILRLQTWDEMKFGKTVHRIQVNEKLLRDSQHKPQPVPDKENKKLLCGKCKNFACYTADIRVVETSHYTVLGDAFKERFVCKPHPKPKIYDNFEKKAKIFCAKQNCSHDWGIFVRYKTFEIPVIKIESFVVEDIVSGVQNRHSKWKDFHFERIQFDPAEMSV
# Assay: co-IP
substance,measurement,value
HA-TRIM25 (from UniProt Q61510 1-634) (enzyme),binding,binds
